# No constants are given. Whether binding was seen depends on the method and setting. In cells and extracts the contact can be indirect. Here binding means that the protein was enriched with, or labelled near, the bait; the list need not be complete. Where a sequence is shown, tags or fusion partners need not be part of it.
# T1: GFP-tagged PBL6 (Arabidopsis thaliana) (UniProt Q9SIB6)
# T1 sequence: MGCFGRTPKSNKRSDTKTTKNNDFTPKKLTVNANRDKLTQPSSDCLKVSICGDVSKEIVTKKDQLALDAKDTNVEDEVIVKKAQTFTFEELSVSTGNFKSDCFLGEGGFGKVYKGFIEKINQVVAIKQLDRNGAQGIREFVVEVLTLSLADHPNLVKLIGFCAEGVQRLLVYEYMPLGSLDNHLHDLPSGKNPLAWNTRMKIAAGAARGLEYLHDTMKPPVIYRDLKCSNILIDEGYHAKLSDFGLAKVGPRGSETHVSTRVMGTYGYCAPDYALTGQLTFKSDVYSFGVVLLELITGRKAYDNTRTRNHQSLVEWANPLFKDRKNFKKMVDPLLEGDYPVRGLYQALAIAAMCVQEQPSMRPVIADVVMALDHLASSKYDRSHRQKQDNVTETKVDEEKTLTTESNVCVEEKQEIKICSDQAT
# T2: GST-MBD3 fusion protein (Arabidopsis thaliana) (UniProt Q4PSK1)
# T2 sequence: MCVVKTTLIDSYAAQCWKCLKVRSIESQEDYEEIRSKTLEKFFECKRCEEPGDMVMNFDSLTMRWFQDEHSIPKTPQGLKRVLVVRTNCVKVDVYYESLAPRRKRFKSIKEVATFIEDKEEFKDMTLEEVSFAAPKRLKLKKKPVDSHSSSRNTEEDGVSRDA
# B1: MBD3 (Methyl-CPG-binding domain 3), co-purified from plants (protein, UniProt Q4PSK1 1-163)
# chain: T2 sequence
# B2: MBD6 (Methyl-CPG-binding domain 6) (protein, UniProt Q9LTJ1 1-225)
# chain: MSDSVAGDFPPDPLLASGAFISSAGDGTLDSSAKRRPIQGGIGISGSGESVRIGMANGTDQVNHQTESKSRKRAAPGDNWLPPGWRVEDKIRTSGATAGSVDKYYYEPNTGRKFRSRTEVLYYLEHGTSKRGTKKAENTYFNPDHFEGQGSNRVTRTATVPPPPPPPLDFDFKNPPDKVSWSMANAGEEGWIPNIGDVKVQDSVRRDWSTAFTFITSRNPSKVSA
# B3: MBD5 (Methyl-CPG-binding domain 5) (protein, UniProt Q9SNC0 1-182)
# chain: MSNGTDQAQPPPENPATPVDSKSRKRATPGDDNWLPPDWRTEIRVRTSGTKAGTVDKFYYEPITGRKFRSKNEVLYYLEHGTPKKKSVKTAENGDSHSEHSEGRGSARRQTKSNKKVTEPPPKPLNFDFLNVPEKVTWTGINGSEEAWLPFIGDYKIQESVSQDWDRVFTLVTSQNAGKTMF
# B4: CCT2 (TCP-1/cpn60 chaperonin family protein), co-purified from plants (protein, UniProt Q940P8 1-527)
# chain: MPIDKIFKDDASEEKGERARMASFVGAMAISDLVKSTLGPKGMDKILQSTGRGHAVTVTNDGATILKSLHIDNPAAKVLVDISKVQDDEVGDGTTSVVVLAGELLREAEKLVASKIHPMTIIAGYRMASECARNALLKRVIDNKDNAEKFRSDLLKIAMTTLCSKILSQDKEHFAEMAVDAVFRLKGSTNLEAIQIIKKPGGSLKDSFLDEGFILDKKIGIGQPKRIENANILVANTAMDTDKVKIYGARVRVDSMTKVAEIEGAEKEKMKDKVKKIIGHGINCFVNRQLIYNFPEELFADAGILAIEHADFEGIERLGLVTGGEIASTFDNPESVKLGHCKLIEEIMIGEDKLIHFSGCEMGQACSIVLRGASHHVLDEAERSLHDALCVLSQTVNDTRVLLGGGWPEMVMAKEVDELARKTAGKKSHAIEAFSRALVAIPTTIADNAGLDSAELVAQLRAEHHTEGCNAGIDVITGAVGDMEERGIYEAFKVKQAVLLSATEASEMILRVDEIITCAPRRREDRM
# Biological target: T1, GFP-tagged PBL6 (Arabidopsis thaliana)
# Experiment: affinity purification with mass spectrometry; IP-MS of GFP-tagged PBL6 transgenic plants; co-purified proteins identified by mass spectrometry
row,Binder,binding
1,B1,binds
2,B2,binds
3,B3,binds
4,B4,binds

# Biological target: T2, GST-MBD3 fusion protein (Arabidopsis thaliana)
# Experiment: affinity purification with mass spectrometry; purified GST-MBD3 added to lysate of 2.5 g WT seedlings (50 mM Tris-HCl pH 8.0, 230 mM NaCl, 5 mM MgCl2, 10% glycerin, 0.2% NP-40), 4 °C, captured on GST beads; bound proteins identified by mass spectrometry; only the target purified
row,Binder,binding
1,B2,binds
2,B3,binds
